The assay concerns the target Flag-AGO2 (stably expressed in HeLa cells) (UniProt Q9UKV8). Description: affinity purification with mass spectrometry; HeLa cells stably expressing Flag-AGO2, normoxia (21% O2) or hypoxia (1% O2) for 24 h; RIPA lysis buffer with 10 mM EDTA; anti-Flag M2 antibody and protein A/G-agarose beads, 4 °C overnight; Nano-LC-MS/MS.

Chains of the proteins cited; added tags and fusions are not shown.
UniProt Q9UKV8: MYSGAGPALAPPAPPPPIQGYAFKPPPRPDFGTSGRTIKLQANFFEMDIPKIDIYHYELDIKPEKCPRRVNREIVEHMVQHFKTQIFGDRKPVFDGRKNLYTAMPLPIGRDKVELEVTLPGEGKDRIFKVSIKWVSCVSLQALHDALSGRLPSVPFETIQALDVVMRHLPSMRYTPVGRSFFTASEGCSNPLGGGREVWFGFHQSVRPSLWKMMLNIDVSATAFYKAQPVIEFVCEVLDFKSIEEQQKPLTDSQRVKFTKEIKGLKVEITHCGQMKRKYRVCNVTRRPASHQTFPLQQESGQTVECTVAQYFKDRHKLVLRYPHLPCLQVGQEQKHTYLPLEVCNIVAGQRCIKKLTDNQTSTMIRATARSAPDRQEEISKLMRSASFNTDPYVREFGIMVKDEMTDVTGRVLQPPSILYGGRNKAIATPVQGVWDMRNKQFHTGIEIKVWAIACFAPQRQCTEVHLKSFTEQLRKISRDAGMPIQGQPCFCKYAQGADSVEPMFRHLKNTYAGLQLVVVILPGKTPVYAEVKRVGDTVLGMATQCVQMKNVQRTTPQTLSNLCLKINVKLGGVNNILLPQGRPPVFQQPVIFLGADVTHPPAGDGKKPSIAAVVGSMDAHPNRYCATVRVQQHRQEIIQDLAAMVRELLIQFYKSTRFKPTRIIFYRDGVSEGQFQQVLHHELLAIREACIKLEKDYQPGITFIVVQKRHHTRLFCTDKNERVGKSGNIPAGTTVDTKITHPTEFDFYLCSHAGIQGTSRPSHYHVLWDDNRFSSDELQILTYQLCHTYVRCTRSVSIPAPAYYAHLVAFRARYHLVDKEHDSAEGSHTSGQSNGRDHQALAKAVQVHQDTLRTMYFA
UniProt Q96EP0: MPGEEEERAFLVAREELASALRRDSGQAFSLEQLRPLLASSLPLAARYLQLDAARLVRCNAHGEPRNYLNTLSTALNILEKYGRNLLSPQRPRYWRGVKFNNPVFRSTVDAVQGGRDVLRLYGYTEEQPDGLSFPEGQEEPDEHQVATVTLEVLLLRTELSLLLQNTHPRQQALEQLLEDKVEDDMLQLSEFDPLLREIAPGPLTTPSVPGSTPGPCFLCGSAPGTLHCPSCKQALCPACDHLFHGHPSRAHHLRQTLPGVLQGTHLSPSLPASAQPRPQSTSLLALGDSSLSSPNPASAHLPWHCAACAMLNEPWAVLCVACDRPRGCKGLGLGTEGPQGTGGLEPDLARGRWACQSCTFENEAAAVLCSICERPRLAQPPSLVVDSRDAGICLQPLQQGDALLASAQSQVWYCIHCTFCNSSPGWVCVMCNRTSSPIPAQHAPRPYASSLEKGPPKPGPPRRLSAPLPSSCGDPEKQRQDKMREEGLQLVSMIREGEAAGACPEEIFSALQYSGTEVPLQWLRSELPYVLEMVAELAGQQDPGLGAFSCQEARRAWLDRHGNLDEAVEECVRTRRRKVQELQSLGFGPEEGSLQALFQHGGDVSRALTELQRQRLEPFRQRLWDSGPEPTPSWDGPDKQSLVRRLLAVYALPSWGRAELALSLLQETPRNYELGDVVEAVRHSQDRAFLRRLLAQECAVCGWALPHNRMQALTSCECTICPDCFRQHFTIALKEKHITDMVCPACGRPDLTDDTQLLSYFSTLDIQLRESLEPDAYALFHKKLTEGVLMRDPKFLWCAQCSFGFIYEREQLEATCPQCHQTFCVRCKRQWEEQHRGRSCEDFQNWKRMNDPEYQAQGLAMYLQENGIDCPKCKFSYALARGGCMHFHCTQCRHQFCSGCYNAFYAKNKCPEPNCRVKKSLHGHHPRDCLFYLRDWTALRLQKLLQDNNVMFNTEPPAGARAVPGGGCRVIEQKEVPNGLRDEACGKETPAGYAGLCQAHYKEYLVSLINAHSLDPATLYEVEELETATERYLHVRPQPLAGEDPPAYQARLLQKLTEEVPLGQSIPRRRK

No constants are given. Whether binding was seen depends on the method and setting. Binding seen in cells or lysates may run through a third protein. These calls come from enrichment with a bait or labelling near it, and not all partners need be listed.

Take “endogenous HOIL-1L (HeLa cells) (from UniProt Q9BYM8-1 1-510)”: the binding entry is “binds”.

Turning to “endogenous HOIP (HeLa cells) (from UniProt Q96EP0 1-1072)”, the binding entry is given as “binds”.

Source of the values: PMC8438024.
